Experimental data as given in article PMC9758949.
No constants are given. Whether binding was seen depends on the method and setting. For some assays here: In cells and extracts the contact can be indirect. Some entries that bind do so weakly or less than the wild type. Each block holds one binder with its values, some of them ahead of it.

The chains behind the UniProt entries cited, without tags or fusion partners.
UniProt P25786: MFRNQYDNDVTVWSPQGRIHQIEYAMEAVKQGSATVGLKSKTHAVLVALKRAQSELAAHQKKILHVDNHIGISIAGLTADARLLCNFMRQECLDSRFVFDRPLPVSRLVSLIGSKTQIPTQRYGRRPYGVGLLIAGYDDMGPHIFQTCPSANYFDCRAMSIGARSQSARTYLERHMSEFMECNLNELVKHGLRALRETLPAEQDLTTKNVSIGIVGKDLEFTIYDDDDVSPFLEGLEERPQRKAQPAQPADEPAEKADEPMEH

Columns and labels:
[1] = molecular target: proteasome subunit alpha type-1 (PSMA1) (human (endogenous in U87 and U251)) (UniProt P25786); experiment: co-IP; lysates of U87 and U251 cells, control or overexpressing the lncRNA MDHDH; capture with anti-MDH2, anti-PSMA1 or mouse IgG and protein A/G magnetic beads; blot with anti-MDH2 or anti-PSMA1
[2] = molecular target: recombinant PSMA1 (UniProt P25786); experiment: co-IP; cell-free system: commercial recombinant MDH2 and PSMA1 instead of cell lysate, with the lncRNA MDHDH; both purified

binding [1]: binds
B1: malate dehydrogenase 2 (MDH2) (enzyme, UniProt P40926 25-338)
chain: AKVAVLGASGGIGQPLSLLLKNSPLVSRLTLYDIAHTPGVAADLSHIETKAAVKGYLGPEQLPDCLKGCDVVVIPAGVPRKPGMTRDDLFNTNATIVATLTAACAQHCPEAMICVIANPVNSTIPITAEVFKKHGVYNPNKIFGVTTLDIVRANTFVAELKGLDPARVNVPVIGGHAGKTIIPLISQCTPKVDFPQDQLTALTGRIQEAGTEVVKAKAGAGSATLSMAYAGARFVFSLVDAMNGKEGVVECSFVKSQETECTYFSTPLLLGKKGIEKNLGIGKVSSFEEKMISDAIPELKASIKKGEDFVKTLK

binding [2]: binds
B2: recombinant MDH2 (enzyme, UniProt P40926 25-338)
chain: B1 chain
